Data reported in publication PMC10336677.
Results are given in words; binding and its absence hold for the method and conditions named. Binding seen in cells or lysates may run through a third protein. Some results given as binding are weak or reduced against the parent protein; the word gives no strength. Where a sequence is shown, tags or fusion partners need not be part of it.

Chains of the proteins cited; added tags and fusions are not shown.
UniProt Q86TM6: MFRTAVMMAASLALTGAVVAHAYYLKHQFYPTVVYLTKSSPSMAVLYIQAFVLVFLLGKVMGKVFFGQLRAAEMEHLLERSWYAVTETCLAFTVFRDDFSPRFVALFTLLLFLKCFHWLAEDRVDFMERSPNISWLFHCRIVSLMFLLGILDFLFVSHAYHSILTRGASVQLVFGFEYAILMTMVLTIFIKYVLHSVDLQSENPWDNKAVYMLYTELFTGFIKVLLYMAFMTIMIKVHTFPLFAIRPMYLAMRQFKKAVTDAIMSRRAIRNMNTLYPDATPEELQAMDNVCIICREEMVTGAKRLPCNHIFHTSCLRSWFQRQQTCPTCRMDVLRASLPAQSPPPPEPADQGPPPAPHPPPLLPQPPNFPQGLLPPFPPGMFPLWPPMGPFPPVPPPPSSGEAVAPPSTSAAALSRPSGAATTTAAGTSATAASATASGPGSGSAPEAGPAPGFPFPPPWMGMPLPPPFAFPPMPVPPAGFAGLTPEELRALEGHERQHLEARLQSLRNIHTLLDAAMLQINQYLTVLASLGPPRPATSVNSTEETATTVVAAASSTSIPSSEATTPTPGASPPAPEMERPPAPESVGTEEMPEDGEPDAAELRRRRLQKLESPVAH

Molecular target: T1, Flag-GSDMD (UniProt P57764)
T1 sequence: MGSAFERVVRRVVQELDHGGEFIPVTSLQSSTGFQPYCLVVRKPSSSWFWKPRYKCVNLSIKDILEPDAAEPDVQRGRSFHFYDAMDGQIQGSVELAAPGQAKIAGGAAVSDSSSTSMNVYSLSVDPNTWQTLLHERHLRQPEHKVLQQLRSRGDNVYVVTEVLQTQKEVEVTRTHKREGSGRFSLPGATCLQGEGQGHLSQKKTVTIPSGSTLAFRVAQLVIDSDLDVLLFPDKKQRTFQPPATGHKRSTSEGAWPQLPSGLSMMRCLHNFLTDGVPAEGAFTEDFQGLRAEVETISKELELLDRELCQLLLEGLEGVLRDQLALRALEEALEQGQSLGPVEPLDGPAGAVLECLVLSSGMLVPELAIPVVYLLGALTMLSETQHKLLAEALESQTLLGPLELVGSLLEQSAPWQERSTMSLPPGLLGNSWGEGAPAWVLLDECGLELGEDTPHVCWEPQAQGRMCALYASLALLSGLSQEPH
Experiment: co-IP; HEK293T cells co-transfected with Myc-Synoviolin and Flag-GSDMD plasmids; lysed in RIPA buffer; immunoprecipitation with anti-Flag or control IgG, immunoblot with Myc

binding: binds
Substance: Myc-Synoviolin (from UniProt Q86TM6 1-617) (enzyme)
